The other results are listed elsewhere or left out. These are raw signals, not scaled to a control.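 In the initial screen, polymyxin B was used at a concentration that permeabilizes Salmonella's outer membrane but not its inner membrane. Maximum growth was set by DMSO wells with or without polymyxin B. Since plates varied, data were ranked per plate, and compounds giving the lowest OD600 advanced as hits.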
Test system: Salmonella enterica serovar Typhimurium SL1344
Test: bacterial growth OD600 after 18 h with compound and polymyxin B; higher = more bacterial growth (less inhibition)
Settings: 50 µM, Mueller-Hinton broth

Structure (SMILES)	bacterial growth OD600 (polymyxin B 0.75 µg/mL)	bacterial growth OD600 (polymyxin B 1 µg/mL)
CC1CCN(Cc2nnnn2CC(=O)NCCc2c[nH]c3ccccc23)CC1	0.785	–
COc1cccc(C(=O)NCC2Cc3cc(-c4ccnc(SC)n4)cc(Cl)c3O2)c1 (stereo not given)	0.013	–
Cc1ccccc1N1CCN(C2CCCN(C(=O)c3ccccn3)C2)CC1 (stereo not given)	–	0.894
c1ccc(-c2n[nH]cc2CN2CCc3onc(-c4ccccc4)c3C2)cc1	0.349	–
Cc1c(C(C)NC(=O)c2ccc(OC3CCN(C(=O)C4CC4)CC3)cc2)cnn1C (stereo not given)	–	0.842
Cc1cccc(C(=O)NC2CC(=O)N(Cc3cccc4ccccc34)C2)n1 (stereo not given)	–	0.83
COc1ccc(CNC(C)c2cnn(-c3ccc(F)cc3F)c2C)c(F)c1 (stereo not given)	–	1.06
CCN1CCN(C2(C(=O)N(C)CCC3CCCCO3)Cc3ccccc3C2)CC1 (stereo not given)	0.854	–
CCOC(=O)C1CCCN(C(=O)CCc2nnc(-c3ccc(C(C)=O)s3)o2)C1 (stereo not given)	0.761	–
CN(c1ncccc1CNC(=O)c1ccc2[nH]cnc2c1)C1CCCCC1	–	0.91
CCOC(=O)CCNC(=O)N1CCC(CC2CCCCO2)(C(=O)OCC)CC1 (stereo not given)	–	0.904
CCN1CCN(C2(C(=O)NCc3ccc(C)s3)Cc3ccccc3C2)CC1	0.836	–
O=C(CCc1cnccn1)N1CCCC(CCc2ccccc2)C1 (stereo not given)	0.824	–
CO[C@H]1[C@H](NC(=O)c2ccco2)c2ccccc2C12CCN(CC1=CC[C@H]3C[C@@H]1C3(C)C)CC2	0.842	–
Cc1nc(C(C)NC2CCN(c3ccc(NC(=O)CCCCc4ccccc4)cc3)CC2)cs1 (stereo not given)	0.796	–
CC(=O)NCC(=O)N1CCCC(C(=O)Nc2cccc(-c3ccc(F)cc3)c2)C1 (stereo not given)	–	0.993
COc1cc(CC2(CCC(=O)NCCc3ccccc3OC)CCC(=O)N2)ccc1F (stereo not given)	0.738	–
CN1CCc2cc(CNC(=O)CC3C(=O)NCCN3Cc3cccnc3)ccc21 (stereo not given)	–	0.89
COc1ccc(-c2noc(CN(C)Cc3ccc(C)cc3)n2)c(OC)c1OC	–	0.933
Cc1cccnc1-c1cccc2c1OC(CNC(=O)CC(C)(C)C)C2 (stereo not given)	0.802	–

Some values from the results shown:
`Cc1cccnc1-c1cccc2c1OC(CNC(=O)CC(C)(C)C)C2` (stereo not given) | bacterial growth OD600 (polymyxin B 0.75 µg/mL): 0.802
`CCN1CCN(C2(C(=O)N(C)CCC3CCCCO3)Cc3ccccc3C2)CC1` (stereo not given) | bacterial growth OD600 (polymyxin B 0.75 µg/mL): 0.854
